Each structure is given as a SMILES string.

Sequences of proteins named here, by UniProt entry; tags and fusion partners are left off. A change or cut given only in a name is not applied to a line headed by its entry.
UniProt P50613: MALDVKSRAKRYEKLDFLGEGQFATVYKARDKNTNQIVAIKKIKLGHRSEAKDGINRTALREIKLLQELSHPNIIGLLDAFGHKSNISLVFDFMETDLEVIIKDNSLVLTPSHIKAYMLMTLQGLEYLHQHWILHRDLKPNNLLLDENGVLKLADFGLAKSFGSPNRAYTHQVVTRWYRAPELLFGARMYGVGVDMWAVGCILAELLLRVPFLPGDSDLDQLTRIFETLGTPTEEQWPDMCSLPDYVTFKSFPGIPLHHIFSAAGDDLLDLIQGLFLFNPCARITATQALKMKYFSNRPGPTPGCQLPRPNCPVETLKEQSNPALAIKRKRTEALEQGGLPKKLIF
UniProt P51948: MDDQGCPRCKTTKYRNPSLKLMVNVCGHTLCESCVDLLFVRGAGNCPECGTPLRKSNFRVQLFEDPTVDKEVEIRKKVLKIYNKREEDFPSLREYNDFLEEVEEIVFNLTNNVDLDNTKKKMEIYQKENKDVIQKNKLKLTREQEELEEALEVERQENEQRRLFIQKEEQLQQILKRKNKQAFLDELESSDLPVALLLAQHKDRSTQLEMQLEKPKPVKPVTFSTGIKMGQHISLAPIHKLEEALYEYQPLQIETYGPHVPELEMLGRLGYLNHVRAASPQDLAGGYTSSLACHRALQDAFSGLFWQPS
UniProt P51946: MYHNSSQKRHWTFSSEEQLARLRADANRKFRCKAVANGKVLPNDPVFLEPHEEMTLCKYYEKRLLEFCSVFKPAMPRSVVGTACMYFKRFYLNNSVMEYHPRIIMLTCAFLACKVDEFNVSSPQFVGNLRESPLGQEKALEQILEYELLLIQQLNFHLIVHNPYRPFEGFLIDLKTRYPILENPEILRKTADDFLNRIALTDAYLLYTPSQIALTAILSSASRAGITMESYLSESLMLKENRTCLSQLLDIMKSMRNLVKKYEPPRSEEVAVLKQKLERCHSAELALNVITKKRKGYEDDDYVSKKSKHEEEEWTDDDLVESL

We go through one molecule from the kinase profiling compilation of Christmann-Franck et al. (2016).

The target of this test is CDK7 CCNH MNAT1 (human) (UniProt P50613+P51948+P51946). Briefly: radiometric filter-binding kinase assay, Kinase HotSpot. The following applies: compound 0.5 µM; ATP 10 µM.

On to `O=C1Nc2ccc(-c3cccnc3)cc2/C1=C\c1ccc[nH]1`, for which the residual activity is 79%.

As usually defined, the residual activity is the activity still measured, relative to the control.
